Among the data in article PMC11618752 are binding values, retold here.

By UniProt entry, the sequences of proteins in these tests, tags left out.
UniProt Q9BRJ7: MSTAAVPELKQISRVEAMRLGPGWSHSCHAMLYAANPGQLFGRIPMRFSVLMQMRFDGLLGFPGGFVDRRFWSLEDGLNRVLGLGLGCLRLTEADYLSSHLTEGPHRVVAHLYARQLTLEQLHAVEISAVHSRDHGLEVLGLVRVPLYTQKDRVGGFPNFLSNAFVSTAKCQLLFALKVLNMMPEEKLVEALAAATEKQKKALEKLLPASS
UniProt Q12888: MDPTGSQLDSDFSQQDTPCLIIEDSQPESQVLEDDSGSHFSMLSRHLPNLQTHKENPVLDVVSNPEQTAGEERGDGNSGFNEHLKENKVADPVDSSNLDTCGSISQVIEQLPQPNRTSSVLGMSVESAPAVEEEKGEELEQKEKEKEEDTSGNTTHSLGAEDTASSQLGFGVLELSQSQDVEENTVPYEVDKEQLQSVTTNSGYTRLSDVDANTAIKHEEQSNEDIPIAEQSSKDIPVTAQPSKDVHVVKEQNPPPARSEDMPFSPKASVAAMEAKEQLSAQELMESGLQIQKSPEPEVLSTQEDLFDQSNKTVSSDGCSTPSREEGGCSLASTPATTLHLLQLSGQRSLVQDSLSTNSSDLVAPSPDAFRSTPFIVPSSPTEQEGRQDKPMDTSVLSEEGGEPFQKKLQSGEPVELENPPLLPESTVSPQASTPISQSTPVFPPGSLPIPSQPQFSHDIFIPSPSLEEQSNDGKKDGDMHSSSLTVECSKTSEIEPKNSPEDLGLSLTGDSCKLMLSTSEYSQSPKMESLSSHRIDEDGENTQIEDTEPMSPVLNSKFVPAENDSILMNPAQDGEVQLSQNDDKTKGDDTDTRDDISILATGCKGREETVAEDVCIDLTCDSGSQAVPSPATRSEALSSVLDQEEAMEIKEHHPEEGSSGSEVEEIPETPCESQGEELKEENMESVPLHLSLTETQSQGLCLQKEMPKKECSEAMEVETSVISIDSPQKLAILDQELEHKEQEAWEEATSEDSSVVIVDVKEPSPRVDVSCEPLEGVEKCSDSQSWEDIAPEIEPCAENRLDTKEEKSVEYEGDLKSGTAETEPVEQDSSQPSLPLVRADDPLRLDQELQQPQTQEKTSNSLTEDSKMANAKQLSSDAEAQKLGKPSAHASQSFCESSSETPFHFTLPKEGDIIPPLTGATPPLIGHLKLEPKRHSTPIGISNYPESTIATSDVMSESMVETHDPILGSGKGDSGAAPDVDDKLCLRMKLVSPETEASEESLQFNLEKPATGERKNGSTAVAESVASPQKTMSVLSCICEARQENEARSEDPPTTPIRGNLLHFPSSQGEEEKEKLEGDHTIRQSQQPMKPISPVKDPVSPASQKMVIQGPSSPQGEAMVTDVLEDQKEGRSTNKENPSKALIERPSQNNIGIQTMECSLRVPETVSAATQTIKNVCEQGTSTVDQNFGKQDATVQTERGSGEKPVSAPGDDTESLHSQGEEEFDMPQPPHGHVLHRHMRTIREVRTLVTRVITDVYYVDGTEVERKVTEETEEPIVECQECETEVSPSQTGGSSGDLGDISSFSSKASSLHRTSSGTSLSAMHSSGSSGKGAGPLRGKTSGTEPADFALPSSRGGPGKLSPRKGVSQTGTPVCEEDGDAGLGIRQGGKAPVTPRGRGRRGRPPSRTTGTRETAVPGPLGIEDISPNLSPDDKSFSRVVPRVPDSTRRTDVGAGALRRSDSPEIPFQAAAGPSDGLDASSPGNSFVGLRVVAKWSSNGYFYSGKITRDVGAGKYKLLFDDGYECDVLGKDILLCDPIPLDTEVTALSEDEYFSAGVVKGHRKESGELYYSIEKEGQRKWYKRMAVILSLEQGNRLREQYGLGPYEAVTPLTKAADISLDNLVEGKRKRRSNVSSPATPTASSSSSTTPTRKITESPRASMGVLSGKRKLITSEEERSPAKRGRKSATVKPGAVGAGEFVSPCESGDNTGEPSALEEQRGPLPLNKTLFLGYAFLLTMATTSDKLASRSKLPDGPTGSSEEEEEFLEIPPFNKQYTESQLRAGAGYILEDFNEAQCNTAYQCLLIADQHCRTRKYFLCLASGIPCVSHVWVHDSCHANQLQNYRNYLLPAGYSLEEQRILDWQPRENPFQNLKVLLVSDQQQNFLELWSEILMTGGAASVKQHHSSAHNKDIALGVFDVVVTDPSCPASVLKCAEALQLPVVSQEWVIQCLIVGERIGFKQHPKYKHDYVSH
UniProt O14980: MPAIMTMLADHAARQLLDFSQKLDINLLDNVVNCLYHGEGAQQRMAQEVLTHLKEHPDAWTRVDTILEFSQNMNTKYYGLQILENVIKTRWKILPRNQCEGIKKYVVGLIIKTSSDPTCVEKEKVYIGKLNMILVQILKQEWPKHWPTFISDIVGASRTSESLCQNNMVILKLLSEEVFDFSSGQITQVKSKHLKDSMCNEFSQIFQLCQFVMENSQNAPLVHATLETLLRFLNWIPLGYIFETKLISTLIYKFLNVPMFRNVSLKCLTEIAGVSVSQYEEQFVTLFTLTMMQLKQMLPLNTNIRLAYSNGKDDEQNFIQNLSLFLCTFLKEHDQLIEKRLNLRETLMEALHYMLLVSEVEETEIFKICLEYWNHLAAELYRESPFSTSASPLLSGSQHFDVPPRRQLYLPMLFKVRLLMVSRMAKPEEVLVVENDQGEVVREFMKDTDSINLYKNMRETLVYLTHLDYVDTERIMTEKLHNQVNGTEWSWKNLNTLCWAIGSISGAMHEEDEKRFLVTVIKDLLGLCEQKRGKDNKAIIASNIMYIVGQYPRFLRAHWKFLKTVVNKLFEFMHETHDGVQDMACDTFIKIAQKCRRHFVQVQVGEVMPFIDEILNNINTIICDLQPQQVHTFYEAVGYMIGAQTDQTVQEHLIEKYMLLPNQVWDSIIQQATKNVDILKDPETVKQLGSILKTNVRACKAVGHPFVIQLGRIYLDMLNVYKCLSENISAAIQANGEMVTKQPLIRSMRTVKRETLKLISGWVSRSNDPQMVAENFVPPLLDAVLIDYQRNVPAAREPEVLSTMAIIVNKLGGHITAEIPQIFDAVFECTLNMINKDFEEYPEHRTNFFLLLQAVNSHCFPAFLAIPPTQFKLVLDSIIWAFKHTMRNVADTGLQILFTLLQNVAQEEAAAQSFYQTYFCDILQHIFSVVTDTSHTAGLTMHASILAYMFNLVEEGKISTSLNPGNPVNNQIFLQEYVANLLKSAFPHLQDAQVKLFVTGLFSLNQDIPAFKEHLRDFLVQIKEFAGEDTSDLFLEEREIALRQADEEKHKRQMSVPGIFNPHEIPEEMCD

The target in assay [1] is Flag-tagged wild-type TIRR (UniProt Q9BRJ7). As to the kind of experiment: co-IP; TIRR (WT or lysine-187 mutant) and 53BP1 before and after DNA damage; Supplementary Fig. 4f, legend not shown.
Assay [2] has as its target Tudor interacting repair regulator (TIRR), endogenous (human (endogenous in PC-3 and U2OS)) (UniProt Q9BRJ7). Put plainly: condition: only cells pretreated with the E1 inhibitor MLN4924; co-IP; endogenous TIRR and XPO1 in whole-cell lysates of PC-3 and U2OS cells pretreated with MLN4924 and exposed to IR (8 Gy).
Assay [3] has the same target. Put plainly: co-IP; endogenous proteins in whole-cell lysates of PC-3 (and U2OS) cells; IP buffer 50 mM Tris-HCl pH 7.4, 150 mM NaCl, 1% NP-40, 1% sodium deoxycholate; antibody-conjugated protein A/G beads, 4 °C overnight; cells with or without IR (8 Gy), DMSO or MG132 pretreatment, control or DTX3L knockout.
Assay [4] has as its target Flag-tagged wild-type TIRR (UniProt Q9BRJ7). As to the kind of experiment: co-IP; whole-cell lysates of 293T cells transfected with HA-XPO1 and Flag-TIRR-WT or mutants; IR (4 or 8 Gy); HA-/Flag-conjugated agarose, IP buffer, 4 °C overnight.
Assay [5] has the same target. Put plainly: co-IP; WT and mutant (I521A/L525A/F561A/F572A) XPO1 with TIRR; Supplementary Fig. 2b, legend not shown.

These are yes or no findings as the source states them, for the method shown. In cells and extracts the contact can be indirect. Some binding calls cover weakened binding; strength is not graded here.

For the substance 53BP1 (from UniProt Q12888 1-1972), in assay [1], the binding result is listed as “binds”.
On to “Exportin-1 (XPO1), endogenous (from UniProt O14980 1-1071)”, for which the figures for the binding entry in assay [2] and in assay [3] were “no binding” and “binds”, respectively.
On to “HA-tagged XPO1 (from UniProt O14980 1-1071)”, for which the binding result in assay [4] and in assay [5] was “binds” each time.
